These results are taken from paper PMC7819943, “Rice protein-binding microarrays: a tool to detect cis-acting elements near promoter regions in rice”.

Sequences of proteins named here, by UniProt entry; tags and fusion partners are left off.
UniProt Q0JBA9, entry or part of it: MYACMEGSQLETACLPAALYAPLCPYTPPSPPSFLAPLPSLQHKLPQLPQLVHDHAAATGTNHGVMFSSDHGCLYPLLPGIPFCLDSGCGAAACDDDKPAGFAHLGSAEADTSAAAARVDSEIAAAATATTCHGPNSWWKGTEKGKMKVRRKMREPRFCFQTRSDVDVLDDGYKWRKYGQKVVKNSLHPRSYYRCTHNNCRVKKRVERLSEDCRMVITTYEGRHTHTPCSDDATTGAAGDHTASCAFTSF

The other results are listed elsewhere or left out.

This experiment concerns the target OsWRKY34 (Oryza sativa, UniProt Q0JBA9 1-250). The experiment can be described thus: protein-binding microarray (RPBM); PBS, 2% BSA, 51.3 ng/ul salmon testes DNA, 50 uM zinc acetate, 200 nM TF, 25 C, 1 h; high values mean tight binding. The following applies: protein: recombinant; tags: N-terminal polyhistidine and DsRed monomer fusion (pET32a); label: CyDye5-dUTP incorporated in the synthesized complementary strand; 3' TTTTT single-stranded linker to array surface; dsDNA, one strand shown. The essentials: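 Per-feature fluorescence intensity (arbitrary units), read on an Axon 4000B scanner, is the binding signal. Transcription factors carrying an N-terminal polyhistidine tag and DsRed fusion were expressed in E. coli BL21-CodonPlus and purified on Ni–NTA. A custom Agilent array, made double-stranded by primer extension with Cy5-dUTP and blocked with 2% BSA, was incubated with 200 nM protein in PBS, 2% BSA, salmon testes DNA and 50 µM zinc acetate at 25 °C for 1 h and then washed.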
With “GAAATCCTCCCCTCTCGCTCTACATGTTTGACTTTGACTTCGGAGTCACCTAGTGCAG”, the binding signal was 8100 fluorescence intensity (a.u.).
The figure for “TAATTTCATAACTCGCCTGGAAACCACGTGACAATCTTTTCGGAGTCACCTAGTGCAG” is 8110 fluorescence intensity (a.u.); for “CATCAGCCGCTGACGTCAGCCGCCACCTCACATCGCTGACCGGAGTCACCTAGTGCAG” it is 10300 fluorescence intensity (a.u.).
Then “ACACTCTCCATCTCTTGTCACCTTGCTCTACTCTCCCCTTCGGAGTCACCTAGTGCAG”, with 10000 fluorescence intensity (a.u.); and “AGTTGATCATGAATGCATTCTTTGTGAGTTGATATTTATTCGGAGTCACCTAGTGCAG”, with 8160 fluorescence intensity (a.u.); and “AAGTCATCCGTATTTGAGTCGATTTTTAAGTCCGTTCGCTCGGAGTCACCTAGTGCAG”, with 8670 fluorescence intensity (a.u.).
Then “ATTTTTGGTAGTCTTGTTTCGTGATATTCGTGAAGAGGGGCGGAGTCACCTAGTGCAG”, with 10700 fluorescence intensity (a.u.); and “CCACGCTCTCTCGTCTGCCTGAACACGCTCGCCGGCGATGCGGAGTCACCTAGTGCAG”, with 9280 fluorescence intensity (a.u.).
In the case of “CTGCTATGAATTATCGGTTGCTTCCGGTGTTGGGCATTGACGGAGTCACCTAGTGCAG”, the binding signal was 12400 fluorescence intensity (a.u.).
The figure for “ATTAGGGGTGTGTTTGAGGAGAAGGAGATTGGGGAGATTGCGGAGTCACCTAGTGCAG” is 8190 fluorescence intensity (a.u.).
Take “GCTACATCCACACCAAATCCCAATCCGCTAAAATAATTTGCGGAGTCACCTAGTGCAG”: the binding signal was 8050 fluorescence intensity (a.u.).
Then “GAGGAGGAGGAGGAGGAGGAGGAGGATGCGGGTGGTGGTGCGGAGTCACCTAGTGCAG”, with 10500 fluorescence intensity (a.u.); and “TTCGATTTGGGTTTTGGGATGTAGTAGTCGCCAGTATCATCGGAGTCACCTAGTGCAG”, with 12700 fluorescence intensity (a.u.); and “AACTCAGTCTCAGCTCACATGATGCATCATCAGCCATGGCCGGAGTCACCTAGTGCAG”, with 8200 fluorescence intensity (a.u.).
Turning to “CAACCACCGCTACTCTCCGCCGCTGAGCTCGCCATCGTGCCGGAGTCACCTAGTGCAG”, the binding signal is 9010 fluorescence intensity (a.u.).
The figure for “GGCCAACCAAAACCCTCCTCCTCTCATCATCGCCCAAAACCGGAGTCACCTAGTGCAG” is 9060 fluorescence intensity (a.u.).
Then “TTAGATTTTTCTTACAACCATTTGCATTGATTTTTTTTTTCGGAGTCACCTAGTGCAG”, with 8960 fluorescence intensity (a.u.); and “TCTCTCGGCATCTTCATCTCTATCCCCTTTCCTCTATCTCCGGAGTCACCTAGTGCAG”, with 10600 fluorescence intensity (a.u.).
Then “TAGCTCCAATTCATCTATAGTCAATCTAATAGCCATTTAACGGAGTCACCTAGTGCAG”, with 8780 fluorescence intensity (a.u.); and “CGCTTGCCGCCCGCTCCGCGCTATTCACCCCGGCCGGCAGCGGAGTCACCTAGTGCAG”, with 8320 fluorescence intensity (a.u.); and “AAGAGAGTAGTACATAGCTATTCCCTCTGGTTTTAAATATCGGAGTCACCTAGTGCAG”, with 8120 fluorescence intensity (a.u.).
For “TATCTTTTAAATCATTTTATGTATCTATTTGGTATATTTCCGGAGTCACCTAGTGCAG”, the binding signal was 9430 fluorescence intensity (a.u.).
“GATTCGGACAATGCAAGCATCCTCTTCCTATAAAAGTCTTCGGAGTCACCTAGTGCAG”: the binding signal was 8040 fluorescence intensity (a.u.).
The figure for “GGTGTGTACAGTTTGTCCAAATCACCAACCAACCATACATCGGAGTCACCTAGTGCAG” is 9200 fluorescence intensity (a.u.); for “TTCTTTCTTTTTTATTTATTTATTTATTTATTTATTTATTCGGAGTCACCTAGTGCAG” it is 9060 fluorescence intensity (a.u.); for “CGGCCGGCCGGTGACCACCAACCACTCTACCACAACCATTCGGAGTCACCTAGTGCAG” it is 8610 fluorescence intensity (a.u.).
The figure for “AATACTTAGCTCGAGCCGCTCTCGTCTTCCCCAATCTCGCCGGAGTCACCTAGTGCAG” is 8040 fluorescence intensity (a.u.); for “CTCACCACCACCACTCCCACATTTCTTCCATCCCTACTCACGGAGTCACCTAGTGCAG” it is 10900 fluorescence intensity (a.u.).
Regarding “CCAGAAATCCGCTTCTCCACTTGTCACGCGCCTCCAGCGACGGAGTCACCTAGTGCAG”, the binding signal was 9890 fluorescence intensity (a.u.).
In the case of “GCTAATTTATCCTGCTCACACGTCGTATTGCCAACCCGACCGGAGTCACCTAGTGCAG”, the binding signal is 9390 fluorescence intensity (a.u.).
Then “GTACCTGCATTCCTATCGAAATCCTGTGTTTTCCCTATTTCGGAGTCACCTAGTGCAG”, with 8980 fluorescence intensity (a.u.); and “ATTAGAGCGATTTTCTAGCTATTCTATGCCAGTGTGACTCCGGAGTCACCTAGTGCAG”, with 9510 fluorescence intensity (a.u.); and “GTCGCTTCTCCTGTCCGCGTCCGGTATCTTGGCGAAAATCCGGAGTCACCTAGTGCAG”, with 8620 fluorescence intensity (a.u.).
Then “TCCTTTTCTTTTATTGGATATATGCCATTACAGCTTTTTTCGGAGTCACCTAGTGCAG”, with 9540 fluorescence intensity (a.u.).
Then “TGCGATTTTACACCTTTTATCCATCTGTAAATTGTAATTTCGGAGTCACCTAGTGCAG”, with 8880 fluorescence intensity (a.u.); and “GCTCGTCCACCATCCTTTCGCCGCCGCAGCGCGCCATGGACGGAGTCACCTAGTGCAG”, with 8320 fluorescence intensity (a.u.).
Turning to “ATCCTCCGCCGCCGCCTCACCTCCTCCGCCACCGCGCTCGCGGAGTCACCTAGTGCAG”, the binding signal was 8270 fluorescence intensity (a.u.).
For the sequence “TTCCTCTTGCTTTCTCCTCCGGGGCCTTGTCGATCTCGTCCGGAGTCACCTAGTGCAG”, the binding signal is 8580 fluorescence intensity (a.u.).
Then “CTCGTGGTCGGCGCTCCACACTCTACCCTCGCCGAACCTTCGGAGTCACCTAGTGCAG”, with 14300 fluorescence intensity (a.u.); and “TCCATGTCACCCTACTTTATCCCGACCGTTCAATCTCAATCGGAGTCACCTAGTGCAG”, with 8450 fluorescence intensity (a.u.).
The figure for “CTTCCCATAACTTTGAACCGTTAGATTTGTTTTAAAATTCCGGAGTCACCTAGTGCAG” is 8770 fluorescence intensity (a.u.).
Then “GGCTGGCTTATGTATATTTCCTAGTTATTGCTGCTCTTAACGGAGTCACCTAGTGCAG”, with 8910 fluorescence intensity (a.u.).
As to “GCTCCATCTCCTCTCGCATAAAATTTTTTACACCAACACACGGAGTCACCTAGTGCAG”, the binding signal is 8280 fluorescence intensity (a.u.).
The figure for “ATTGCCACGCCACGCGCGGGTGGACGGGAAGGGAGGGGAGCGGAGTCACCTAGTGCAG” is 9340 fluorescence intensity (a.u.); for “GGAGGAGAGGAGTTAGGGTTAAAGGGGTCTGCATGAATCTCGGAGTCACCTAGTGCAG” it is 11800 fluorescence intensity (a.u.).
Then “GGGTGTGTGTGTTGAGGGTTGGCGTCCGTGTCCAGATCTACGGAGTCACCTAGTGCAG”, with 9520 fluorescence intensity (a.u.); and “TTTTGTCATTGTGGGTGGTCAGTTATGCTTGTTGGGATGACGGAGTCACCTAGTGCAG”, with 8830 fluorescence intensity (a.u.); and “CATCCTTTCTCATGTGAAACTATTCCTATATTCAAAGATTCGGAGTCACCTAGTGCAG”, with 8240 fluorescence intensity (a.u.).
The figure for “CAGGACACCGGCCCACGCGTATTCTCCTGGTCCCACACGTCGGAGTCACCTAGTGCAG” is 11100 fluorescence intensity (a.u.).
As to “TCCTCCTGCGTCTAGTACCCTATCTTCACCTTTCCGGAGACGGAGTCACCTAGTGCAG”, the binding signal is 10100 fluorescence intensity (a.u.).
Then “ATATAGACCGCATATCCCTTCTCGCTAGCTTGCTTAACCCCGGAGTCACCTAGTGCAG”, with 8400 fluorescence intensity (a.u.); and “TCGGTGTACTTTTTCCGCCGGAATTCCCCGGGGTGCCTCACGGAGTCACCTAGTGCAG”, with 8410 fluorescence intensity (a.u.); and “TTTTTTGTATGGTACAGGTTTGAGAGGGTGTGGGACCCTACGGAGTCACCTAGTGCAG”, with 9820 fluorescence intensity (a.u.).
In the case of “TTTTTGTCCATGAACCATATGTTTCTTTTTCTTTTTTGAACGGAGTCACCTAGTGCAG”, the binding signal is 8930 fluorescence intensity (a.u.).
